This passage reports IC50 results from US12319703B2, “Macrocyclic fused pyrazoles as Mcl-1 inhibitors” (ASCENTAGE PHARMA (SUZHOU) CO., LTD., priority 2019, dated 2025).

The chains behind the UniProt entries cited, without tags or fusion partners. Residues count along the entry.
UniProt Q07820, 171-323 limits assumed: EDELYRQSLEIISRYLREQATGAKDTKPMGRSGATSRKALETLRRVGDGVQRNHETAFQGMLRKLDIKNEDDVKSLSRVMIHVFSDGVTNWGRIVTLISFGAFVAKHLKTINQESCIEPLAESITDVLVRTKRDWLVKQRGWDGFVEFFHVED

One experiment concerns OPM-2 cells. Put plainly: Cell viability assay (OPM-2 cells), CCK-8. The settings on record: read-out: OPM2 (WST, 5% FBS), 24 h. How it is done: Cell Viability Assay (OPM-2 Cells)
OPM-2 cells were obtained from Deutsche Sammlung von Mikroorganismen und Zellkulturen GmbH (DSMZ). […]
The effect of representative Compounds of the Disclosure on cell viability was determined using Cell Counting Kit-8 (CCK-8) assay (Shanghai Life iLab Bio Technology) according to the manufacturer's instructions. Each tested compound was serially diluted in culture medium, 100 μL of the compound dilution was added into 96-well plates. 100 μL of an OPM-2 cell suspension (20000 cells/well) in culture medium were seeded into the corresponding well of the plate and the cells were incubated at 37° C. in an atmosphere of 5% CO2 for 24 hours. In the next day, 20 μL of CCK-8 solution was added to each well of the plate and incubated for 4 hours.
The plates were read at 450 nm on the microplate spectrophotometer (SpectraMax plus 384, Molecular devices). The readings were normalized to the vehicle cells, and the IC50 was calculated by nonlinear regression analysis using GraphPad Prism 6 software.

A further experiment concerns NCI-H929 cells. Kind of experiment: Cell viability assay (NCI-H929 cells), CCK-8. Particulars: read-out: H929 (WST, 5% FBS), 24 h. How it is done:
Cell Viability Assay (NCI-H929 Cells)
NCI-H929 cells were obtained from American Type Culture Collection (ATCC). Cells were maintained in the recommended culture medium (RPMI 1640) with 10% FBS and 0.05 mM BME at 37° C. and an atmosphere of 5% CO2.
The effect of Compounds on cell viability was determined using Cell Counting Kit-8 (CCK-8) assay according to the manufacturer's instructions. 95 μL of NCI-H929 cell suspension (20000 cells/well) in culture medium were seeded into 96-well plates and cultured 4 hrs. Each tested compound was serially diluted in DMSO, then 5 μL of the compound or DMSO was diluted in 95 μL medium once more. At last, 5 μL of the compound dilution was added to the corresponding well of the cell plate. After the addition of the tested compound, the cells were incubated at 37° C. in an atmosphere of 5% CO2 for 24 hrs. At the end, 10 μL of CCK-8 solution was added to each well of the plate and incubated for 1-4 hours. The plates were read at 450 nm on the microplate reader (BioTek Synergy 1MF). The readings were normalized to the vehicle cells, and the IC50 was calculated by nonlinear regression analysis using GraphPad Prism 6 software.

Experiment [1] addresses Mcl-1 protein (residues 171-323) (Homo sapiens, UniProt Q07820). Put plainly: Inhibition of Mcl-1 by fluorescence polarization (FP) competitive binding assay. The settings on record: read-out: FP-Binding; FAM-Bid tracer 2 nM, Mcl-1 20 nM, 30 min. In general terms: Fluorescence polarisation rises when a labelled molecule tumbles more slowly, as on binding a larger partner.

The match of structure and compound is tentative.

With `Cn1c(C(=O)O)c2c3ccc(Cl)c(c31)-c1c(nn3c1CCC3)CSCc1ccc(nc1)CSc1cc(c3ccc(F)cc3c1)OCCC2`, the values for the IC50 (in the experiment on OPM-2 cells; in the experiment with NCI-H929 cells; in experiment [1]) were 145 nM, 58 nM and 14.3 nM, respectively.
